Here are results for two molecules from PMC5483954, “Different specificities of two aldehyde dehydrogenases from Saccharomyces cerevisiae var. boulardii” (Bioscience Reports, 2017).

Where a chain is given by its changes, count along the chain named. Numbers in names are those of the source. These are yes or no findings as the source states them, for the method shown. Some entries that bind do so weakly or less than the wild type. Sequences can lack the tags named with a protein.

Assay [1] has as its target Saccharomyces cerevisiae var. boulardii Ald6p variant p.M177V (Saccharomyces cerevisiae var. boulardii (NCYC 3264)) (UniProt P54115). Description: cross-linking; 1-3% (v/v) glutaraldehyde; results not shown; both purified.
Assay [2] shares this target. The assay is described as follows: SDS/PAGE of the untreated purified protein (SDS- and heat-resistant oligomers); purified protein without cross-linker on SDS/PAGE (10% gel); band not reduced by additional DTT (2 mM); both purified.
Assay [3] shares this target. Description: cross-linking; BS3 (50-800 uM) with 15 uM protein in 100 mM sodium phosphate pH 7.4, 30 C, 35 min; products on SDS/PAGE (10% gel); both purified.
Assay [4] deals with Saccharomyces cerevisiae var. boulardii cytosolic aldehyde dehydrogenase Ald6p (wild-type) (Saccharomyces cerevisiae var. boulardii (NCYC 3264)) (UniProt P54115). The assay is described as follows: cross-linking; 1-3% (v/v) glutaraldehyde; results not shown; both purified.

B1: Saccharomyces cerevisiae var. boulardii Ald6p variant p.M177V (enzyme, UniProt P54115 1-500)
chain: MTKLHFDTAEPVKITLPNGLTYEQPTGLFINNKFMKAQDGKTYPVEDPSTENTVCEVSSATTEDVEYAIECADRAFHDTEWATQDPRERGRLLSKLADELESQIDLVSSIEALDNGKTLALARGDVTIAINCLRDAAAYADKVNGRTINTGDGYMNFTTLEPVGVCGQIIPWNFPIVMLAWKIAPALAMGNVCILKPAAVTPLNALYFASLCKKVGIPAGVVNIVPGPGRTVGAALTNDPRIRKLAFTGSTEVGKSVAVDSSESNLKKITLELGGKSAHLVFDDANIKKTLPNLVNGIFKNAGQICSSGSRIYVQEGIYDELLAAFKAYLETEIKVGNPFDKANFQGAITNRQQFDTIMNYIDIGKKEGAKILTGGEKVGDKGYFIRPTVFYDVNEDMRIVKEEIFGPVVTVAKFKTLEEGVEMANSSEFGLGSGIETESLSTGLKVAKMLKAGTVWINTYNDFDSRVPFGGVKQSGYGREMGEEVYHAYTEVKAVRIKL
On to B1, for which the binding entry in assay [1], in assay [2] and in assay [3] was “binds” each time.

B2: Saccharomyces cerevisiae var. boulardii cytosolic aldehyde dehydrogenase Ald6p (wild-type) (enzyme, UniProt P54115 1-500, looked up)
chain: B1 chain with V177M
notes: Ald6p, cytosolic aldehyde dehydrogenase of S. cerevisiae var. boulardii NCYC 3264; differs from the S. cerevisiae S288c protein by valine for isoleucine at position 163; printed mass 54.4 kDa; Removal of the tag is not mentioned; also called cytosolic Ald6p; wild-type Ald6p; source: E. coli Rosetta (DE3), purified (cobalt agarose, dialysis)
As to B2, the binding entry in assay [4] is given as “binds”.
